Earlier results, collected in patent publication US20180280305A1 (Bayer HealthCare LLC, priority 2015, published 2018).
Some of these results come from one statement about several compounds together.

Settings: in vivo

CC(=O)Nc1ccc(O)cc1 [acetaminophen]
plasma half-life: ≤ 3.2 h
